Reference: PubChem BioAssay AID1745846 (National Center for Advancing Translational Sciences (NCATS), 2022)
The campaign covered roughly 1,400 compounds. About 30 (2%) were called active. Inconclusive results (about 15%) are left out. Calls follow the shape of the dose curve; as a rule, active = well fitted inhibition curve with a large enough effect; inconclusive = small, poorly fitted or top-dose-only effect; inactive = flat fitted curve, though single readings scatter. The list shows a part of the results.

Test: Firefly Luciferase Counterscreen for Inhibitors of ATXN expression
Details: luminescence; series mostly up to 57.5 µM; activity change, negative = inhibition: at the top concentration
In short: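 Recombinant firefly luciferase at 10 nM final in 50 mM Tris pH 7.5, 10 mM MgCl2, 0.05% BSA, 0.01% Tween20 with substrate; compounds up to 57 uM final, 10 min room temperature, end-point luminescence. Buffer-only wells define 100% inhibition.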
% is scaled to controls: 0 for no effect and ±100 for the full control effect; potency is read from the fitted curve at half-maximal effect.

Row | Structure (SMILES) | activity change, negative = inhibition | Potency
1 | Oc1ccc(N2CCN(c3ccnc4cc(Cl)ccc34)CC2)cc1 | inactive: -6.51% | –
2 | O=[N+]([O-])c1ccc2[nH]cc(S(=O)(=O)N3CCN(c4cccc(Cl)c4)CC3)c2c1 | inactive: 2.95% | –
3 | C/C(=N\NC(=O)c1cc(C2CC2)nc2ccccc12)c1ccc(O)cc1O | inactive: -7.04% | –
4 | O=C(N/N=C/c1ccc([N+](=O)[O-])s1)c1ccccc1 | inactive: -19.8% | –
5 | C=CCc1cccc(CNc2nc3ccccc3n2C(C)C)c1O | inactive: -8.29% | –
6 | C[n+]1c2n(c3ccccc31)N=C(c1ccccc1)CS2 | inactive: -2.4% | –
7 | Cc1cc(Br)c(OCc2ccc(C(=O)N/N=C3\CC4CC=CC34)cc2)c(Br)c1 (stereo unspecified) | inactive: -4.29% | –
8 | CCN(CC(=O)Nc1cccc(OC)c1)CC(=O)Nc1ccc(Br)c(C)c1 | inactive: -8.35% | –
9 | CCn1cc(CN2CCC(C(=O)Nc3cccc(-c4cccc(Cl)c4)c3)CC2)c(C)n1 | inactive: 0.197% | –
10 | COc1cccc(Nc2nc(C(N)Cc3ccc(F)cc3)cs2)n1 (stereo unspecified) | inactive: 4.71% | –
11 | COc1cccc(-c2nn(C)c3sc(C(=O)NCCCN(C)Cc4ccccc4)cc23)c1 | inactive: -0.692% | –
12 | CCOc1ccc2[nH]c3c(NCCC(C)C)ncnc3c2c1 | inactive: -14.1% | –
13 | CC(=O)NC(c1ccc(C)cc1)c1cc(Cl)c2cccnc2c1O (stereo unspecified) | inactive: -14.8% | –
14 | O=C1N(c2ccccc2)C[C@@H]2C[C@@H](c3cc4ccccc4o3)N3CCC[C@@]123 | inactive: -0.27% | –
15 | COc1ccc(CC2C(=O)NC(C)C(=O)N(C)C3Cc4ccc(cc4)Oc4cc(ccc4O)CC(C(=O)NC(C)C(=O)NC(C)C(=O)N2C)N(C)C3=O)cc1 (stereo unspecified) | inactive: -0.0052% | –
16 | Cc1cccc(C(=O)N[C@H](C(=O)Nc2ncc(C)s2)C(C)C)c1 | inactive: -3.96% | –
17 | COc1ccc(-c2csc(Nc3ccc(S(N)(=O)=O)cc3)n2)cc1OC | inactive: -10.9% | –
18 | CCCCC(=O)N(CCOC)c1nnc(-c2ccccc2C)s1 | inactive: -0.918% | –
19 | CCCCn1c2ccc(F)cc2c2nnc(NN)nc21 | inactive: -0.632% | –
20 | CCN(CC)S(=O)(=O)c1ccc(C)c(NC(=S)N2CCN(c3ccccn3)CC2)c1 | inactive: -0.456% | –
21 | [O-][n+]1onc2c1CCc1c-2nn(-c2ccccc2Cl)[n+]1[O-] | inactive: -2.38% | –
22 | CCOC(=O)N(C)c1c(CC)nc2c(OCc3ccccc3OC)cccn12 | inactive: -3.91% | –
23 | CC(C)Nc1nc(-c2ccccn2)nc(-c2ccccc2)c1C#N | inactive: 1.8% | –
24 | Cc1cc(N2CCN(Cc3nc(-c4ccc(Cl)cc4)oc3C)CC2)cc(C)n1 | inactive: 0.946% | –
25 | COc1ccc(C(=O)NNC(=S)NC(=O)c2ccccc2)cc1 | inactive: -14.8% | –
26 | COc1cc(/C=C/c2ccc(/C=C/c3cc(OC)c(OC)c(OC)c3)cc2)cc(OC)c1OC | inactive: 2.23% | –

Row | Structure (SMILES) | activity change, negative = inhibition | Potency
27 | O=C(CSc1n[nH]c(-c2ccccn2)n1)Nc1ccccc1 | inactive: -13.1% | –
28 | CN(c1ccccc1)S(=O)(=O)c1ccc(C(=O)Nc2nnc(-c3ccc(F)cc3)o2)cc1 | inactive: -19% | –
29 | COc1ccc(C2CC(c3ccccc3C(F)(F)F)=NN2c2ccc(S(N)(=O)=O)cc2)cc1 (stereo unspecified) | inactive: -0.388% | –
30 | O=C(CNc1cccc(C(F)(F)F)c1)Nc1cccc(S(=O)(=O)N2CCCC2)c1 | inactive: -7.16% | –
31 | CC(=O)Oc1ccccc1Cn1c(C)c(C(=O)NCc2ccc(Cl)c(Cl)c2)sc1=O | inactive: 0.728% | –
32 | O=C(COc1ccc(Br)cc1CO)Nc1ccc(S(=O)(=O)N2CCCCC2)cc1 | inactive: -0.257% | –
33 | CN1CCC(N(C)S(=O)(=O)c2ccc(NC(=O)COc3ccc(Br)cc3Cl)cc2)CC1 | inactive: -14.6% | –
34 | CC(C)N(C(=O)N1CCN(c2ccnc3cc(Cl)ccc23)CC1)C(C)C | inactive: 1.43% | –
35 | N#Cc1c(NCCN)nc(-c2ccco2)c2c1CCCC2 | inactive: 0.59% | –
36 | O=C(CCCN1CCc2[nH]c3ccc(F)cc3c2C1)c1ccc(F)cc1 | inactive: 1.89% | –
37 | COc1ccc(/C=C2\CN(Cc3ccccc3)C/C(=C\c3ccc(OC)c(O)c3)C2=O)cc1O | inactive: -1.84% | –
38 | CCn1c(/C=C/c2ccc([N+](=O)[O-])o2)nc2ccccc2c1=O | inactive: 1.83% | –
39 | Cc1cccc(N=C2NN=C(c3c(C)[nH]c4ccccc34)CS2)c1 | inactive: -0.128% | –
40 | CCc1ccc(CNC(=O)c2cc3c(C)nc4ccccc4c3o2)cc1 | inactive: -6.09% | –
41 | Clc1ccc2c(NCc3ccccc3)ccnc2c1 | inactive: -5.63% | –
42 | O=c1c(Cc2ccccc2)c(O)nc2n1CCS2 | inactive: -5.28% | –
43 | CCOC(=O)N1CCC(c2cc(=O)n3[nH]c(C)c(-c4ccc(F)cc4)c3n2)CC1 | inactive: -8.39% | –
44 | COc1ccccc1OCCN1CSC(=S)N(C)C1 | inactive: -3.93% | –
45 | CN(C)CCCNc1nc2cc(-c3cccc(Cl)c3)sc2c(=O)n1C | inactive: 0.253% | –
46 | CC(C)(C)N(Cc1ccc2c(c1)OCO2)C(=O)/C=C\S(=O)c1ccccc1 (stereo unspecified) | inactive: -1.1% | –
47 | C/C(=N\NC(=O)CN(c1ccccc1)S(C)(=O)=O)c1ccccc1O | inactive: -2.27% | –
48 | Cc1ccc(C)c(CN2CCC(CNC(=O)Nc3ccc(C)c(C)c3)CC2)c1 | inactive: 3.77% | –
49 | N#Cc1c(Oc2ccc3ccccc3c2)sc(C(=O)c2ccccc2)c1N | inactive: 4.85% | –
50 | COc1cc(-c2ccc3sc(-c4ccsc4)c(C#CCO)c3c2)cc(OC)c1OC | inactive: 0.724% | –
51 | Cc1ccc2[nH]c(=O)c(CN(CCCN(C)C)C(=O)Nc3cccc(Cl)c3)cc2c1 | inactive: -2.94% | –
52 | Oc1c(C(Nc2cccc(C(F)(F)F)c2)c2cccnc2)ccc2cccnc12 (stereo unspecified) | inactive: -4.6% | –

Entries of single compounds from above:
`Oc1ccc(N2CCN(c3ccnc4cc(Cl)ccc34)CC2)cc1` in the list: activity change, negative = inhibition: inactive: -6.51%
`COc1ccc(CC2C(=O)NC(C)C(=O)N(C)C3Cc4ccc(cc4)Oc4cc(ccc4O)CC(C(=O)NC(C)C(=O)NC(C)C(=O)N2C)N(C)C3=O)cc1` (stereo unspecified) in the list: activity change, negative = inhibition: inactive: -0.0052%
`CC(C)Nc1nc(-c2ccccn2)nc(-c2ccccc2)c1C#N` in the list: activity change, negative = inhibition: inactive: 1.8%
`O=c1c(Cc2ccccc2)c(O)nc2n1CCS2` in the list: activity change, negative = inhibition: inactive: -5.28%

The results go on.

Row | Structure (SMILES) | activity change, negative = inhibition | Potency
53 | O=C(Nc1ccc(F)cc1)c1sccc1SCc1cccc(C(F)(F)F)c1 | inactive: -2.62% | –
54 | CCCc1nc(C)cc(N2CCN(c3ccccc3)CC2)n1 | inactive: 4.02% | –
55 | CCCNC(=O)c1ccc2c(=O)c(O)c(-c3cccc(Br)c3)[nH]c2c1 | inactive: -1.91% | –
56 | Nc1c(C(=O)NCCN2CCOCC2)c2nc3ccccc3nc2n1CCc1ccccc1F | inactive: 0.75% | –
57 | COc1cccc(CC2(CO)CCCN(Cc3[nH]c4ccc(C)cc4c3C)C2)c1 (stereo unspecified) | inactive: -1.09% | –
58 | NS(=O)(=O)c1ccc(N2N=C(c3ccccc3)CC2c2cccc(Cl)c2)cc1 (stereo unspecified) | inactive: -7.87% | –
59 | CS(=O)(=O)Nc1cccc(NC(=O)c2cccc3c(-c4cccc(C(N)=O)c4)coc23)c1 | – | active: 14.1 µM
60 | COc1ccc2nc(C)cc(SCC(=O)N/N=C/c3ccc(O)cc3O)c2c1 | inactive: 0.544% | –
61 | Cn1cccc1/C=N/N1CCN(Cc2ccccc2Cl)CC1 | inactive: -4.65% | –
62 | CCN1CCN(Cc2ccc(NC(=O)c3ccc(C)c(NC(=O)c4nccnc4N)c3)cc2C(F)(F)F)CC1 | inactive: -14.6% | –
63 | N#CC1=C(N)N2C(=C(C#N)C1c1cccc(Br)c1)Nc1ccccc12 (stereo unspecified) | inactive: -1.52% | –
64 | O=C(Nc1cccc(C(F)(F)F)c1)N1CCC(c2nc(-c3ccc(F)cc3)no2)CC1 | inactive: -1.53% | –
65 | CCCC(=O)NC(c1ccc(OC)cc1)c1c(O)ccc2ccccc12 (stereo unspecified) | inactive: -0.474% | –
66 | CN(C)c1ccc2c(c1)OC(N)=C(C#N)C2c1cccc(F)c1 (stereo unspecified) | inactive: -5.56% | –
67 | CCC(O)(CC)C(=O)N/N=C/c1cc(Br)cc(Br)c1O | inactive: -19.5% | –
68 | c1ccc(-c2sc3ccccc3c2-c2ccc(OCCN3CCCC3)cc2)cc1 | inactive: 0.532% | –
69 | O=c1[nH]c(=O)n(C2C[C@H](O)[C@@H](CO)O2)cc1C(F)(F)F (stereo partly specified) | inactive: -1.72% | –
70 | CC(=O)c1ccc(NC(=O)COC(=O)c2c3c(nc4ccccc24)/C(=C\c2cccs2)CCC3)cc1 | inactive: -6.28% | –
71 | CN(C)CCCN(C(=O)c1ccco1)c1nc2cc3c(cc2s1)OCO3 | inactive: -7.33% | –
72 | O=C(CNc1ccc(F)cc1)N/N=C/c1c(O)ccc2ccccc12 | inactive: -9.02% | –
73 | COCCNc1nc(-c2cc(C)n(CCc3ccc(OC)cc3)c2C)cs1 | inactive: -5.72% | –
74 | Cc1cc2c(c(/C=C/C(=O)c3ccccc3)c1)OC1(C=C2)Oc2ccccc2C(=O)N1C (stereo unspecified) | inactive: 0.945% | –
75 | COc1ccccc1N1CCN(Cc2cc(Br)c(O)c3ncccc23)CC1 | inactive: 0.669% | –
76 | C=CCc1ccccc1OCC(=O)N/N=C/c1ccc(OC(C)=O)cc1OC(C)=O | inactive: -12.9% | –
77 | O=C(Nc1ccc(OC(F)F)c(Cl)c1)C(c1ccccc1)c1ccccc1 | inactive: -1.79% | –
78 | C/C(=N\NC(=O)CCCNc1ccc(C)cc1)c1ccccn1 | inactive: -2.4% | –

Row | Structure (SMILES) | activity change, negative = inhibition | Potency
79 | OCCN1CCN(C2CCC(c3ccc(F)cc3)c3ccc(F)cc32)CC1 (stereo unspecified) | inactive: 1.87% | –
80 | NC(=O)c1cc([N+](=O)[O-])ccc1NCc1ccc(N)cc1 | inactive: -11.5% | –
81 | CC(=O)Oc1ccc(C23c4ccccc4C2(OC(C)=O)c2cc(OC(C)=O)ccc23)cc1 (stereo unspecified) | inactive: -2.35% | –
82 | Cc1sc2nc(C3CC3)nc(N3CCN(C(=O)c4ccc(F)cc4)CC3)c2c1C | inactive: 3.95% | –
83 | NC(=S)n1[nH]c(-c2ccc([N+](=O)[O-])cc2)c(N=Nc2cccc(Cl)c2)c1=O | inactive: -15.3% | –
84 | CC(C)C1C(=O)N(Cc2cn(CCC3OCCO3)nn2)CCS(=O)(=O)N1Cc1ccc(-c2ccc(Cl)cc2)cc1 (stereo unspecified) | inactive: -3.28% | –
85 | CCCCCc1ccc(OCCC[n+]2ccccc2)c(CCCCC)c1 | inactive: 3.83% | –
86 | Cn1nnnc1Sc1ncnc2scc(Br)c12 | inactive: 2.76% | –
87 | Cc1cc(Nc2cccc([N+](=O)[O-])c2)n2c(nc3ccccc32)c1C#N | inactive: -0.0683% | –
88 | Cc1nc2ccccc2n1-c1nc(-c2ccco2)cc(C(F)(F)F)n1 | inactive: -1.97% | –
89 | c1ccc2c(c1)c1c(c3ccccc32)CN2CCCC2C1 (stereo unspecified) | inactive: -8.97% | –
90 | Cc1cccc(OCC(=O)NCC(=O)N/N=C/c2cc(Br)cc(Br)c2O)c1 | inactive: -17.3% | –
91 | COc1ccccc1C(=O)NNC(=O)c1nn(Cc2ccccc2)c(=O)c2ccccc12 | inactive: -14.4% | –
92 | CCOc1cc(CNCCO)cc(Br)c1OCc1ccccc1 | inactive: 2.7% | –
93 | COc1ccc(CC(N)c2csc(NC(=O)CCc3ccccc3)n2)cc1 (stereo unspecified) | inactive: 1.99% | –
94 | O=C(c1cnc(N2CCN(c3ccccn3)CC2)c2ccccc12)N1CCN(c2cccc(Cl)c2)CC1 | inactive: 0.857% | –
95 | Cn1nnnc1Sc1ncnc2scc(-c3ccsc3)c12 | inactive: -8.77% | –
96 | OC[C@@H]1[C@@H](c2ccc(Cl)cc2)C(c2cccc(Cl)c2)=NN1c1ccccc1 | inactive: 0.588% | –
97 | CCCCN(C(=O)c1cccc2c(=O)c(C)c(-c3ccccc3)oc12)c1ccccc1 | inactive: -7.85% | –
98 | COc1ccccc1-c1cc2nc(-c3ccccc3)cc(N3CCN(C(=O)c4ccoc4)CC3)n2n1 | inactive: -4.06% | –
99 | Cn1c(SCC(=O)N/N=C/c2ccc([N+](=O)[O-])s2)nnc1-c1ccc(Cl)cc1 | inactive: -15.1% | –
100 | OCCN1CCN(c2nc(-c3ccccc3O)nc3ccccc23)CC1 | inactive: 2.35% | –
101 | Cc1ccc(/C=C2/CNC/C(=C/c3ccc(C)cc3)C2=O)cc1 | inactive: -13% | –
